No constants are given. Whether binding was seen depends on the method and setting. In cells and extracts the contact can be indirect. Here binding means that the protein was enriched with, or labelled near, the bait; the list need not be complete.
What was measured:
[1] = molecular target: miniTurbo-V5-casein kinase 1γ3 (mT-V5-CK1γ3) (human) (UniProt Q9Y6M4); assay: proximity labelling; HEK293T cells stably expressing mT-V5-CK1γ, 50 mM biotin (Fig. 1F: biotin and WNT3A CM for 30 min), RIPA lysis, streptavidin affinity pulldown 1 h at 4 °C, Western blot of the biotinylated proteins
[2] = molecular target: miniTurbo-V5-casein kinase 1γ1 (mT-V5-CK1γ1) (human) (UniProt Q9HCP0); assay: as above
[3] = molecular target: miniTurbo-V5-casein kinase 1γ2 (mT-V5-CK1γ2) (human) (UniProt P78368); assay: as above
[4] = molecular target: miniTurbo-V5-casein kinase 1γ3 (mT-V5-CK1γ3) (human) (UniProt Q9Y6M4); assay: proximity labelling; as the 30 min experiment but 120 min of biotin treatment; streptavidin affinity purification and mass spectrometry, SAINT scored separately

Protein sequences, listed by entry. Tags and fused reporters are not part of them.
UniProt Q9Y6M4: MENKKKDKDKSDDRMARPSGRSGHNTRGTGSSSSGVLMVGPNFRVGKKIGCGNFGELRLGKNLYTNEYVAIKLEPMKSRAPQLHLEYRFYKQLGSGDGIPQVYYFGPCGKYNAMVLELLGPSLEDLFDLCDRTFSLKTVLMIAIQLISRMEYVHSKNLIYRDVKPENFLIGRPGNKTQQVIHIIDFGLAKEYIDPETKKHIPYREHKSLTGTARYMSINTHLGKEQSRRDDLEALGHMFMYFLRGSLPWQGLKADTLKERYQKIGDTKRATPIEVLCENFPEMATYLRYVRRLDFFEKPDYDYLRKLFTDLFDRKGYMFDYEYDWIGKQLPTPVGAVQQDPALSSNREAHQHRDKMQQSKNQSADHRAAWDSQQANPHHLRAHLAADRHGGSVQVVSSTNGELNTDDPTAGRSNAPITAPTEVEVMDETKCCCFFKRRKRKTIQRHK
UniProt Q9HCP0: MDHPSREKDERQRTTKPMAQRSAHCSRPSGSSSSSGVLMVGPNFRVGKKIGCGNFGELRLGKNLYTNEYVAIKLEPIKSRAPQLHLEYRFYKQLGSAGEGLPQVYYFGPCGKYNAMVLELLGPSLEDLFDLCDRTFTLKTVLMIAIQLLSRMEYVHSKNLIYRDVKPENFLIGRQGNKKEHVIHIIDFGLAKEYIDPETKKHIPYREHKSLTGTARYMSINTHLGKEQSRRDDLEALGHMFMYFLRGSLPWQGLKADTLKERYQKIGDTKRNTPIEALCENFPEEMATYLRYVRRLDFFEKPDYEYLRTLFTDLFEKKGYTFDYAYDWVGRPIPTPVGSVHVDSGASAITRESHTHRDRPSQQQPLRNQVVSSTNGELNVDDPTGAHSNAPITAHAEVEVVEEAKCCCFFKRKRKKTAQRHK
UniProt P78368: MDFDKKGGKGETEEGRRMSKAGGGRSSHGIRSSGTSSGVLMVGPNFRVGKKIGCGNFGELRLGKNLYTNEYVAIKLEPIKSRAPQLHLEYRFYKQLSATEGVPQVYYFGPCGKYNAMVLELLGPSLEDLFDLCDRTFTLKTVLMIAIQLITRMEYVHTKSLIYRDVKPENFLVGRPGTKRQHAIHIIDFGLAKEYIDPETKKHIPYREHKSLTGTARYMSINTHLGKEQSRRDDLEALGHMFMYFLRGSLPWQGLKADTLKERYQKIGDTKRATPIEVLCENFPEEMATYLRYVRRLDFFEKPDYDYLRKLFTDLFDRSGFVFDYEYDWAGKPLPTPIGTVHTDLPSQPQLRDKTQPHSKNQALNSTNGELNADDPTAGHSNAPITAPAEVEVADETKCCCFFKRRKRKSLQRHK

B1: prickle planar cell polarity protein 1 (protein, UniProt Q96MT3 1-831)
chain: MPLEMEPKMSKLAFGCQRSSTSDDDSGCALEEYAWVPPGLRPEQIQLYFACLPEEKVPYVNSPGEKHRIKQLLYQLPPHDNEVRYCQSLSEEEKKELQVFSAQRKKEALGRGTIKLLSRAVMHAVCEQCGLKINGGEVAVFASRAGPGVCWHPSCFVCFTCNELLVDLIYFYQDGKIHCGRHHAELLKPRCSACDEIIFADECTEAEGRHWHMKHFCCLECETVLGGQRYIMKDGRPFCCGCFESLYAEYCETCGEHIGVDHAQMTYDGQHWHATEACFSCAQCKASLLGCPFLPKQGQIYCSKTCSLGEDVHASDSSDSAFQSARSRDSRRSVRMGKSSRSADQCRQSLLLSPALNYKFPGLSGNADDTLSRKLDDLSLSRQGTSFASEEFWKGRVEQETPEDPEEWADHEDYMTQLLLKFGDKSLFQPQPNEMDIRASEHWISDNMVKSKTELKQNNQSLASKKYQSDMYWAQSQDGLGDSAYGSHPGPASSRRLQELELDHGASGYNHDETQWYEDSLECLSDLKPEQSVRDSMDSLALSNITGASVDGENKPRPSLYSLQNFEEMETEDCEKMSNMGTLNSSMLHRSAESLKSLSSELCPEKILPEEKPVHLPVLRRSKSQSRPQQVKFSDDVIDNGNYDIEIRQPPMSERTRRRVYNFEERGSRSHHHRRRRSRKSRSDNALNLVTERKYSPKDRLRLYTPDNYEKFIQNKSAREIQAYIQNADLYGQYAHATSDYGLQNPGMNRFLGLYGEDDDSWCSSSSSSSDSEEEGYFLGQPIPQPRPQRFAYYTDDLSSPPSALPTPQFGQRTTKSKKKKGHKGKNCIIS
binding [1]: binds
binding [2]: binds
binding [3]: binds

B2: FZD3 (receptor, UniProt Q9NPG1 23-666)
chain: HSLFSCEPITLRMCQDLPYNTTFMPNLLNHYDQQTAALAMEPFHPMVNLDCSRDFRPFLCALYAPICMEYGRVTLPCRRLCQRAYSECSKLMEMFGVPWPEDMECSRFPDCDEPYPRLVDLNLAGEPTEGAPVAVQRDYGFWCPRELKIDPDLGYSFLHVRDCSPPCPNMYFRREELSFARYFIGLISIICLSATLFTFLTFLIDVTRFRYPERPIIFYAVCYMMVSLIFFIGFLLEDRVACNASIPAQYKASTVTQGSHNKACTMLFMILYFFTMAGSVWWVILTITWFLAAVPKWGSEAIEKKALLFHASAWGIPGTLTIILLAMNKIEGDNISGVCFVGLYDVDALRYFVLAPLCLYVVVGVSLLLAGIISLNRVRIEIPLEKENQDKLVKFMIRIGVFSILYLVPLLVVIGCYFYEQAYRGIWETTWIQERCREYHIPCPYQVTQMSRPDLILFLMKYLMALIVGIPSVFWVGSKKTCFEWASFFHGRRKKEIVNESRQVLQEPDFAQSLLRDPNTPIIRKSRGTSTQGTSTHASSTQLAMVDDQRSKAGSIHSKVSSYHGSLHRSRDGRYTPCSYRGMEERLPHGSMSRLTDHSRHSSSHRLNEQSRHSSIRDLSNNPMTHITHGTSMNRVIEEDGTSA
binding [4]: binds
